From patent US11878036B2, “Vaginal care compositions and methods of improving vaginal health” (Neuvian LLC, priority 2022, dated 2024)
At least one structure is not confirmed: it was looked up by name or label, or the drawing left a doubt.

Tested on: primary human vaginal epithelial cells
Experiment: cAMP-Glo Assay in vaginal cells
Type: cell-based
Details: 60-minute treatment with forskolin (positive control)

## C=C[C@@]1(C)CC(=O)[C@]2(O)[C@@]3(C)[C@@H](O)CCC(C)(C)[C@@H]3[C@H](O)[C@H](OC(C)=O)[C@@]2(C)O1 [forskolin]
  cAMP production: less cAMP production
